Test results reported in the supplement of paper PMC4749390.
Where a name gives a salt, the structure may show the parent alone. This is one part of the list. Single values are uncertain here, since repeats match poorly.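 JEG3 cells stably express tetracycline-inducible wild-type human LRH-1, a highly sumoylated nuclear receptor. SUMO-sensitive transcripts APOC3 and MUC1, increased by SUMO-deficient LRH-1 or UBC9 knockdown, were quantified by RT-qPCR relative to TBP and DMSO controls. Primary hits had robust Z-scores above +2 or below -2, before toxicity and TBP filtering.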

test system: JEG3 expressing hLRH-1; experiment: MUC1 transcript change (ddCt vs TBP and DMSO), Z-score over library; higher = higher MUC1 expression; details: 10 µM; time (hr): 24

Row | SMILES | MUC1 transcript change (Z-score)
1 | CCN1CCC(CNC(=O)c2cc(S(N)(=O)=O)ccc2OC)C1 (configuration not stated) [sulpiride] | 0.00198
2 | O=C(O)Cc1ccc(-c2ccccc2)cc1 [felbinac] | 0.858
3 | COc1ccc(CCN(C)CCCC(C#N)(c2ccc(OC)c(OC)c2)C(C)C)cc1OC (racemic) [(±)-Verapamil hydrochloride] | 0.39
4 | COc1c(N2CCNC(C)C2)c(F)cc2c(=O)c(C(=O)O)cn(C3CC3)c12 (configuration not stated) [gatifloxacin] | 0.114
5 | Cn1c(=O)c2c(ncn2C)n(C)c1=O [Caffeine] | -1.23
6 | NS(=O)(=O)c1cc(C2(O)NC(=O)c3ccccc32)ccc1Cl (configuration not stated) [chlorthalidone] | -0.461
7 | CO/N=C(\C(=O)N[C@@H]1C(=O)N2C(C(=O)OC(C)OC(C)=O)=C(COC(N)=O)CS[C@H]12)c1ccco1 (some centres not stated) [cefuroxime axetil] | 0.363
8 | CSc1ccc2c(c1)C(N1CCN(C)CC1)Cc1ccccc1S2 (configuration not stated) [Methiothepin mesylate] | -0.174
9 | OCc1ccccc1O [salicyl alcohol] | 1.12
10 | O=C(O)c1cc(O)c(O)c(O)c1 [gallic acid] | -0.577
11 | Cc1nc(O)c(C#N)cc1-c1ccncc1 [milrinone] | 0.88
12 | CC1=NN(c2ccccc2)C(=O)C1 [3-methyl-1-phenyl-2-pyrazolin-5-one (mci-186)] | 0.378
13 | CC(=O)Oc1cccc(C)c1 [meta-cresyl acetate] | 0.362
14 | Oc1c(Cl)cc(Cl)c(Cl)c1Cc1c(O)c(Cl)cc(Cl)c1Cl [hexachlorophene] | 0.618
15 | Nc1nc(N)c2nc(CNc3ccc(C(=O)NC(CCC(=O)O)C(=O)O)cc3)cnc2n1 (configuration not stated) [Aminopterin] | 0.228
16 | FC(F)(F)COCC(F)(F)F [flurothyl] | 1.3
17 | C[C@@H]1CC2C3CCC4=CC(=O)C=C[C@]4(C)[C@@]3(F)[C@@H](O)C[C@]2(C)[C@@]1(O)C(=O)COP(=O)(O)O (some centres not stated) [dexamethasone sodium phosphate] | -0.419
18 | CCN[C@@H]1C[C@H](N)[C@@H](O[C@H]2OC(CN)=CC[C@H]2N)[C@H](O)[C@H]1O[C@H]1OC[C@](C)(O)[C@H](NC)[C@H]1O [netilmicin sulfate] | 0.0425
19 | N=C(N)c1ccc(N=NNc2ccc(C(=N)N)cc2)cc1 [diminazene aceturate] | 0.171
20 | Cc1c(O)c(=O)ccn1C [deferiprone] | -2.25
21 | C=CC1=C(C)c2cc3nc(cc4[nH]c(cc5[nH]c(cc1n2)c(C)c5C=C)c(C)c4CCC(=O)O)C(CCC(=O)O)=C3C [protoporphyrin ix] | -0.402
22 | CC(C(=O)O)c1ccc2c(c1)[nH]c1ccc(Cl)cc12 (configuration not stated) [carprofen] | 0.715

A draw from above in order of SMILES length, low to high:
Row | SMILES | MUC1 transcript change (Z-score)
13 | CC(=O)Oc1cccc(C)c1 [meta-cresyl acetate] | 0.362
10 | O=C(O)c1cc(O)c(O)c(O)c1 [gallic acid] | -0.577
2 | O=C(O)Cc1ccc(-c2ccccc2)cc1 [felbinac] | 0.858
6 | NS(=O)(=O)c1cc(C2(O)NC(=O)c3ccccc32)ccc1Cl (configuration not stated) [chlorthalidone] | -0.461
4 | COc1c(N2CCNC(C)C2)c(F)cc2c(=O)c(C(=O)O)cn(C3CC3)c12 (configuration not stated) [gatifloxacin] | 0.114
